Experimental data published in article PMC6288840.
No constants are given. Whether binding was seen depends on the method and setting. In cells and extracts the contact can be indirect. These calls come from enrichment with a bait or labelling near it, and not all partners need be listed.

Protein sequences, listed by entry. Tags and fused reporters are not part of them.
UniProt P22147: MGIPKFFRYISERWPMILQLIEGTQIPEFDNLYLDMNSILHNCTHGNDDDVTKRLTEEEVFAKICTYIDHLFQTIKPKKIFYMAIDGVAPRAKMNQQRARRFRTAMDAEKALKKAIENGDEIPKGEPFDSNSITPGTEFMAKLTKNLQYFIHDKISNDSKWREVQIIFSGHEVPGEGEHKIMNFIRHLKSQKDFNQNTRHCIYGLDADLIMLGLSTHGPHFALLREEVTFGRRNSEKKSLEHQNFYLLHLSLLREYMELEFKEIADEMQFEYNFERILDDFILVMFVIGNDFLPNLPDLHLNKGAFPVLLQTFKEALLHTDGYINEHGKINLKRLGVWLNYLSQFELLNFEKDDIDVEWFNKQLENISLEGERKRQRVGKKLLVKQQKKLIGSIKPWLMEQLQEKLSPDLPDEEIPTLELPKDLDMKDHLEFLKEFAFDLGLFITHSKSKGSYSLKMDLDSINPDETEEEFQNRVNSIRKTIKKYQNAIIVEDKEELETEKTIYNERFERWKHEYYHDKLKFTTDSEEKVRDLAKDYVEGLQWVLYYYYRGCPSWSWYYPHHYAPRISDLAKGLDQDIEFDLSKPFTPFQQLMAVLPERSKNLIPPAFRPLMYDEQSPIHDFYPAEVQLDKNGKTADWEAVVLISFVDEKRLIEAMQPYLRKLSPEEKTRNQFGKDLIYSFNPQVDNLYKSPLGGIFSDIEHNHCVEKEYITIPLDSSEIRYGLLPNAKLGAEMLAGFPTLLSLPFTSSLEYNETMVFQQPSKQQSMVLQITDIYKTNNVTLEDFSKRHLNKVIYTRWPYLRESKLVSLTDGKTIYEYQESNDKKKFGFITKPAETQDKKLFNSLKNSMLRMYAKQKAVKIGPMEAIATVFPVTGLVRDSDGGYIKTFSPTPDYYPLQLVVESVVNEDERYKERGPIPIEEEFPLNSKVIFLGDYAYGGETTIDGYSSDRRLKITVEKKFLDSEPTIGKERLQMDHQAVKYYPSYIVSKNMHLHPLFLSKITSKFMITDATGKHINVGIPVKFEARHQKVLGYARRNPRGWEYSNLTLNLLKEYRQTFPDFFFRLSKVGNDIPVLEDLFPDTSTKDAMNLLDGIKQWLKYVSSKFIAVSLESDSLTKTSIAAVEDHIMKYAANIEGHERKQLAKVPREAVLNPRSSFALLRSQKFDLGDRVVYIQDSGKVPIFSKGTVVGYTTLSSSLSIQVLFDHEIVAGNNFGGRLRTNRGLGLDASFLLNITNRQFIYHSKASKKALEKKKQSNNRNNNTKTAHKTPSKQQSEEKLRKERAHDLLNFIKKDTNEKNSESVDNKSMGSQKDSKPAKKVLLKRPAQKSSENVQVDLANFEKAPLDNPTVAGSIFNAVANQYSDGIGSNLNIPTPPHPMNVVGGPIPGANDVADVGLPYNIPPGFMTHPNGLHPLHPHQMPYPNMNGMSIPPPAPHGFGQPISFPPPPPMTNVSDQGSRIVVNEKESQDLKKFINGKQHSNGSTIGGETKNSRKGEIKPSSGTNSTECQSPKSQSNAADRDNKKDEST

The binders below were run against Xrn1-Flag (S. cerevisiae) (UniProt P22147) (assay: affinity purification with mass spectrometry; reciprocal SILAC; Xrn1-Flag IP from wild type and rad53 deletion cells treated with 2 ug/mL 4-NQO for 60 min).

| Binder | binding |
| --- | --- |
| Arx1 (endogenous) (protein, UniProt Q03862 1-593) MALAISHEDTQILLKDKNILQESVLNKYRTAGQIAQTALKYVTSLINDSYHSKTTQRQLTVPELCLLTDSFILTRLEQYYKNKVNERGIAIPTTIDIDQISGGWCPEIDDTQNLLNWNKGKDSTFASSVTGTLRPGDLVKITLGVHIDGYTSEVSHTMVIYPVDETKPILQPTGPLLGGKADAVAAAHIAMETVVALLACALTPEKLPASLGGTSSGITGQLIRTIVDTIARSYNCGVVPGSRVRRIRRFLAGQNEGIVAEREYKGVVWTESHQEADLLSNTDAKDLTVVDRGQSTPFTNVSAIPSDDFVVQSGEVYLIDLKMASLEHCTKKGLVTLETVDSYTGKSHKAGELIARPGAYVRDFAQTHILKLKTSRQLLTKIDKQGVYPFKLSHLSSNFPFVHENEEELQSLKKDLKSFRLGMSEISNNYLCVESPIQIARWVPWDHILKATNPNGNLSYDATSTLTLPGHELPLPKLGVSAIKLKSLMNSTKESISLPVARECNTIVLCDSSVSTTDRPELLRLTGGSKTCQPSWIHSQHELNPQDSIVQGIFQLATLAKDKRFGLLLKETQPMKQKSVETSNGGVEETMKM | binds |
| Hsp26 (endogenous) (protein, UniProt P15992 1-214) MSFNSPFFDFFDNINNEVDAFNRLLGEGGLRGYAPRRQLANTPAKDSTGKEVARPNNYAGALYDPRDETLDDWFDNDLSLFPSGFGFPRSVAVPVDILDHDNNYELKVVVPGVKSKKDIDIEYHQNKNQILVSGEIPSTLNEESKDKVKVKESSSGKFKRVITLPDYPGVDADNIKADYANGVLTLTVPKLKPQKDGKNHVKKIEVSSQESWGN | binds |

Now from value to binder:

| binding | Binder |
| --- | --- |
| binds | Mss116 (endogenous) (protein, UniProt P15424 27-664) NHITWAVSRRLYNDGNRDQRNFGRNQRNNNSNRYRNSRFNSRPRTRSREDDDEVHFDKTTFSKLIHVPKEDNSKEVTLDSLLEEGVLDKEIHKAITRMEFPGLTPVQQKTIKPILSSEDHDVIARAKTGTGKTFAFLIPIFQHLINTKFDSQYMVKAVIVAPTRDLALQIEAEVKKIHDMNYGLKKYACVSLVGGTDFRAAMNKMNKLRPNIVIATPGRLIDVLEKYSNKFFRFVDYKVLDEADRLLEIGFRDDLETISGILNEKNSKSADNIKTLLFSATLDDKVQKLANNIMNKKECLFLDTVDKNEPEAHERIDQSVVISEKFANSIFAAVEHIKKQIKERDSNYKAIIFAPTVKFTSFLCSILKNEFKKDLPILEFHGKITQNKRTSLVKRFKKDESGILVCTDVGARGMDFPNVHEVLQIGVPSELANYIHRIGRTARSGKEGSSVLFICKDELPFVRELEDAKNIVIAKQEKYEPSEEIKSEVLEAVTEEPEDISDIVISLISSYRSCIKEYRFSERRILPEIASTYGVLLNDPQLKIPVSRRFLDKLGLSRSPIGKAMFEIRDYSSRDGNNKSYDYDDDSEISFRGNKNYNNRSQNRDYDDEPFRRSNNNRRSFSRSNDKNNYSSRNSNIY |
| binds | YMR196W (endogenous) (protein, UniProt Q04336 1-1088) MNKLRDKFVDSTVEEERLRENRNHEKYWYRWGPYLSERSWATVREDYSLNGDAWSNFPFEHANARVFRWGEDGLFGVSDNKQLVCMNVALWNGKDERLKERLFGLTGPQGNHGEDVKELYFYLDNTPTHSYMKALYKYPFKKAFPYKELVQKNGERGYEDKEFEVYDIDGLYRDSETGDNPYFDVFFEMAKDDENPSELNFRLTIHNRSKIDSGELYIAPQLFFRNTWAFDGTRTKDKPLLERDAEAANLINMTHKKYGNCQMVFQPSPGGFSSGTNEEEEDKEVEDIDPLLLFTDNESNLVKLFNEEKNPSEYTKDAFEEYLVQGKTDAVNPENKGTKACAVYHFKNIPPGEYVTVRYKFTNDPKNSIFKAQNLAVVDEDEFDLIFDNREEEADNFYWRITPLPISDELRNLQRQAFSGLLWTKQFYNFTYDAWYNGDANVKPRPPPNRANGRNKNWKHLYIEDILSMPDKWEYPFFASWDTAFHCIPLAMIDPEFAKRQLDLLTREWYMHPNGQIPAYEWNFNDVNPPVHAWAVYRVFKIERNMYNREDRTFLERVFQKLLLNFTWWVNRKDTEGKNVFEGGFLGLDNIGVFNRSEPLPTGGTLEQADSTGWMAFFSLQMLNIALELAKENPVYEDIASKFFEHFILISDSMSFEYATDITGEKCKEVIKQNLWNEADKFYYDAISWGDHKVQLPIRSLVGLIPLYASMTLEPSIIKQFRGFKKRVDWFVNNRPEIFDRNIASMSKKGVGERLLLSLVTKERLTAILSRLLDETEFLSPYGIRSLSKYHEKHPFEMNVNGVEYMVKYLPGESDSGMFGGNSNWRGPIWFPTSFLIMEALQRFYLYYGSDFKVECPVGSGDYLNLAEVAEELGYRMIHLFVPDENGERAIHYGDHSKFLSSDPYFRDYVPFFEYFDGDTGRGLGASHQCGWTALVAKWISDVGISCVRLPRTPRSSVATTASTESSEQGPKMKRMARRKSAKSLVNYTATILDLTEEEKRHHRIGGTHSGLTPQSSISSDKARHLMEEMNEEEGIHETVVPEDRHNFETKLIGKLKDKVKNMKVTDKAKDEDIDPMDPMSPLNKDVS |
